Results are given in words; binding and its absence hold for the method and conditions named. In cells and extracts the contact can be indirect. These calls come from enrichment with a bait or labelling near it, and not all partners need be listed. Tags and fused reporters may be left off the sequences shown.
target: T1, Strep-His-TEV-HaloTag-3C-human γTuNA (human CDK5RAP2 aa 53–98), wildtype (human); assay: affinity purification with mass spectrometry; Halo-Magne beads coupled to Halo-γTuNA baits in Xenopus egg extract, 3C elution, TMT multiplexed quantitative mass spectrometry (Quant-IP); enrichment against the Xenopus F75A bait; only the target purified
T1 sequence: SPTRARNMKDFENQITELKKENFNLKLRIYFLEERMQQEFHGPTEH

By UniProt entry, the sequences of proteins in these tests, tags left out.
UniProt Q9DG02: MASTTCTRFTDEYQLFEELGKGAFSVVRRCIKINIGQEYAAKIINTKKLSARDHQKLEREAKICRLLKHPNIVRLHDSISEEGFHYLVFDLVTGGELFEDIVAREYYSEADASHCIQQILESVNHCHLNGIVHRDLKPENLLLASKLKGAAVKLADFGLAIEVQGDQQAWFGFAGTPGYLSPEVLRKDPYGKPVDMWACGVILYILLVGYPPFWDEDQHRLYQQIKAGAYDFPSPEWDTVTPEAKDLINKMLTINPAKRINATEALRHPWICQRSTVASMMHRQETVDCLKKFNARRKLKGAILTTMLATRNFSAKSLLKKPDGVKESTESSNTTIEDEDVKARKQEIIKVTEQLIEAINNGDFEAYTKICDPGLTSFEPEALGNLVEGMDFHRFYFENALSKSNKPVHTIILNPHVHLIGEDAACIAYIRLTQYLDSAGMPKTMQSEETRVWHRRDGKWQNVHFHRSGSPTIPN

| binding | Substance |
| --- | --- |
| binds | cyclin-dependent kinase 1 (CDK1) subunit A, Xenopus laevis |
| binds | cyclin-dependent kinase 1 (CDK1) subunit B, Xenopus laevis |
| binds | nucleoside diphosphate kinase 7 (NME7), Xenopus laevis |
| binds | type II delta chain of the calmodulin-dependent protein kinase (CAMK2D), Xenopus laevis (from UniProt Q9DG02 1-475) |

target: T2, Strep-His-TEV-HaloTag-3C-Xenopus γTuNA (Xenopus Cdk5rap2 aa 56–101), wildtype (Xenopus laevis); assay: as above
T2 sequence: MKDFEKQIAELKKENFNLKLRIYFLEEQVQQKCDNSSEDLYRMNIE

| binding | Substance |
| --- | --- |
| binds | cyclin-dependent kinase 1 (CDK1) subunit A, Xenopus laevis |
| binds | cyclin-dependent kinase 1 (CDK1) subunit B, Xenopus laevis |
| binds | nucleoside diphosphate kinase 7 (NME7), Xenopus laevis |
| binds | type II delta chain of the calmodulin-dependent protein kinase (CAMK2D), Xenopus laevis (from UniProt Q9DG02 1-475) |

Source: paper PMC9859039, “The conserved centrosomin motif, γTuNA, forms a dimer that directly activates microtubule nucleation by the γ-tubulin ring complex (γTuRC)” (eLife, 2022)
